These results are taken from PMC6356782.

The chains behind the UniProt entries cited, without tags or fusion partners.
UniProt O60674: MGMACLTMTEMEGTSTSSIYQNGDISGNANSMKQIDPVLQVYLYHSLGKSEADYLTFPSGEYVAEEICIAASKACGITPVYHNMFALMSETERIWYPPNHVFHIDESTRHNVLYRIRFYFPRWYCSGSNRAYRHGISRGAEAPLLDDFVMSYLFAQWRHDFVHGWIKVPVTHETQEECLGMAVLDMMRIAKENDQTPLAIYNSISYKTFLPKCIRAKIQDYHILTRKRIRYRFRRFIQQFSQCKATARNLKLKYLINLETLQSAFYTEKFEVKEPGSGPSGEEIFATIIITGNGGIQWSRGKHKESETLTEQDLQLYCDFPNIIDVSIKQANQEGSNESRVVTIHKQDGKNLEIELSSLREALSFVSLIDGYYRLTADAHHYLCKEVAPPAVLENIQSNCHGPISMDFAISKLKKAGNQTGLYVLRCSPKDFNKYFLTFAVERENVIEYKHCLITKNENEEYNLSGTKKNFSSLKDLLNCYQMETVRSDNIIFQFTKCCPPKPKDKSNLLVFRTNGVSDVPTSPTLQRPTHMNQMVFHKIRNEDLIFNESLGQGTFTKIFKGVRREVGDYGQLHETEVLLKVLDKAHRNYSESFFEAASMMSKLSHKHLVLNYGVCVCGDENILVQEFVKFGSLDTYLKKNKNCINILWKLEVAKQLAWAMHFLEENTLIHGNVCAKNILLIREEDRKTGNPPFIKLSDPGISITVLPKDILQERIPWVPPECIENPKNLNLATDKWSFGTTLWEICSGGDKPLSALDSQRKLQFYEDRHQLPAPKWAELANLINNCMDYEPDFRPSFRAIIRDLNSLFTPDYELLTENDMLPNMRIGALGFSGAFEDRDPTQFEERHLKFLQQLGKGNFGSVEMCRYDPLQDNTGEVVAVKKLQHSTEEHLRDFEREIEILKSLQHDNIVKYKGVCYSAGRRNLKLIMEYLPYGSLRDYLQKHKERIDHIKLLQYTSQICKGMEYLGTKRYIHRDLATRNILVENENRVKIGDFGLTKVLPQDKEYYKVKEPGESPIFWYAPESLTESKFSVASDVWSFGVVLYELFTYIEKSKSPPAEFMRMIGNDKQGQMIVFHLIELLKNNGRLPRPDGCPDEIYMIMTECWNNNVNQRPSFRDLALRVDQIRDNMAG
UniProt O95751: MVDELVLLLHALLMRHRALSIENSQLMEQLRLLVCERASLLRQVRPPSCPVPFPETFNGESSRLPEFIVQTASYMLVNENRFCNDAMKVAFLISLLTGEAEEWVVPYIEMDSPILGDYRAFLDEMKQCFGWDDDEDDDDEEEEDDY

In assay [1] the target is phospho-JAK2 (pJAK2) (human (endogenous in A549)) (UniProt O60674). As to the kind of experiment: co-IP; endogenous proteins; IL-6-stimulated (100 ng/mL) A549 and A549-shCtrl-D10 cells; NP-40 lysis buffer with MG132 and ubiquitin aldehyde; extracts precleared with IgG, immunoprecipitated with antibodies against pJAK2, LDOC1 or LNX1; immunoblot. On the technique in general: In western blotting, separated proteins are transferred to a membrane and probed.

For assay [2], the target named is Leucine Zipper Down-Regulated In Cancer 1 (LDOC1) (human (endogenous in A549)) (UniProt O95751). The assay is described as above.

These are yes or no findings as the source states them, for the method shown. In cells and extracts the contact can be indirect. Some binding calls cover weakened binding; strength is not graded here.

In the case of “Leucine Zipper Down-Regulated In Cancer 1 (LDOC1) (from UniProt O95751 1-146)”, the binding result in assay [1] is “binds”.

B1: Ligand Of Numb-Protein X 1 (LNX1), E3 ubiquitin-protein ligase (enzyme, UniProt Q8TBB1 1-728)
chain: MNQPESANDPEPLCAVCGQAHSLEENHFYSYPEEVDDDLICHICLQALLDPLDTPCGHTYCTLCLTNFLVEKDFCPMDRKPLVLQHCKKSSILVNKLLNKLLVTCPFREHCTQVLQRCDLEHHFQTSCKGASHYGLTKDRKRRSQDGCPDGCASLTATAPSPEVSAAATISLMTDEPGLDNPAYVSSAEDGQPAISPVDSGRSNRTRARPFERSTIRSRSFKKINRALSVLRRTKSGSAVANHADQGRENSENTTAPEVFPRLYHLIPDGEITSIKINRVDPSESLSIRLVGGSETPLVHIIIQHIYRDGVIARDGRLLPGDIILKVNGMDISNVPHNYAVRLLRQPCQVLWLTVMREQKFRSRNNGQAPDAYRPRDDSFHVILNKSSPEEQLGIKLVRKVDEPGVFIFNVLDGGVAYRHGQLEENDRVLAINGHDLRYGSPESAAHLIQASERRVHLVVSRQVRQRSPDIFQEAGWNSNGSWSPGPGERSNTPKPLHPTITCHEKVVNIQKDPGESLGMTVAGGASHREWDLPIYVISVEPGGVISRDGRIKTGDILLNVDGVELTEVSRSEAVALLKRTSSSIVLKALEVKEYEPQEDCSSPAALDSNHNMAPPSDWSPSWVMWLELPRCLYNCKDIVLRRNTAGSLGFCIVGGYEEYNGNKPFFIKSIVEGTPAYNDGRIRCGDILLAVNGRSTSGMIHACLARLLKELKGRITLTIVSWPGTFL
Consider B1, for which the binding entry in assay [2] is recorded as “binds”.
